Measurements published in patent US6150325A (A. Menarini Industrie Farmaceutiche Riunite S.r.l., priority 1995, dated 2000).

What was measured:
[1] = general procedure: Fmoc solid-phase peptide synthesis; 2-chlorotrityl resin; HOBt/DCC; OPfp ester with HOBt for the glycosylated residue; PyBOP/DIEA for cycl; conditions: whole synthesis
[2] = general procedure: Fmoc solid-phase peptide synthesis; 2-chlor trityl resin (1.6 mmol/g, Novabiochem), Fmoc-Leu substitution 0.364 meq/g; HOBt/DCC; OPfp ester with HOBt for the glycosylated residue; PyBOP/DIEA for cycl

cyclo([Asn(β-D-Glc)-Asp-Trp-Phe-Dap-Leu]cyclo(2β-5β))
crude mass [1]: 405 mg
step yield ([2]; late stage modification step): 60%
purity (crude or final not stated) ([2]; late stage modification step, HPLC): 98%
crude HPLC purity ([2]; whole synthesis, HPLC, scale of the general procedure 1 g of resin): 70%
crude yield ([2]; whole synthesis, scale of the general procedure 1 g of resin): 90%
